# Results reported in PubChem BioAssay (EPA / NIEHS).
# Chains of the proteins cited; added tags and fusions are not shown. Lines headed by an entry give the natural chain unless they say otherwise; changes in a name come on top.
# UniProt P04150: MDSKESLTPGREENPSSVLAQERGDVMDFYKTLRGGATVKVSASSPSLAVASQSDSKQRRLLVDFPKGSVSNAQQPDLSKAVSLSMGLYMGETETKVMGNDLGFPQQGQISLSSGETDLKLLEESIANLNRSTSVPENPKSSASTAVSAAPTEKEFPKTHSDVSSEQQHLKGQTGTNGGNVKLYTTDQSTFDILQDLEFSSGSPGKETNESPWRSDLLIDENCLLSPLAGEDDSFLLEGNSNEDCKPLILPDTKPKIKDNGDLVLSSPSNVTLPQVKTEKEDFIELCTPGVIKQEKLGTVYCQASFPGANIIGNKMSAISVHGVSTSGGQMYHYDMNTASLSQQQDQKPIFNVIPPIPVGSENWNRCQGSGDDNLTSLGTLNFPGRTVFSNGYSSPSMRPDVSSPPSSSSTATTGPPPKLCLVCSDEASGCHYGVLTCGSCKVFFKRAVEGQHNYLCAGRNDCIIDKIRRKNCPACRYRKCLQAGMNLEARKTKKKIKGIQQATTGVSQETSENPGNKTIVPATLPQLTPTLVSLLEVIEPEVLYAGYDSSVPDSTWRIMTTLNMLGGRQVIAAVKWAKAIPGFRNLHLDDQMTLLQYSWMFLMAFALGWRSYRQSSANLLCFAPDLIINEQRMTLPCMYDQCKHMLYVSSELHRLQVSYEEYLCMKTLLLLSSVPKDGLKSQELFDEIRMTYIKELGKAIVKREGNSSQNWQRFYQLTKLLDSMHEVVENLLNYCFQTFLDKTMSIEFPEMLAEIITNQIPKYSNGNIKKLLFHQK
# UniProt Q03181: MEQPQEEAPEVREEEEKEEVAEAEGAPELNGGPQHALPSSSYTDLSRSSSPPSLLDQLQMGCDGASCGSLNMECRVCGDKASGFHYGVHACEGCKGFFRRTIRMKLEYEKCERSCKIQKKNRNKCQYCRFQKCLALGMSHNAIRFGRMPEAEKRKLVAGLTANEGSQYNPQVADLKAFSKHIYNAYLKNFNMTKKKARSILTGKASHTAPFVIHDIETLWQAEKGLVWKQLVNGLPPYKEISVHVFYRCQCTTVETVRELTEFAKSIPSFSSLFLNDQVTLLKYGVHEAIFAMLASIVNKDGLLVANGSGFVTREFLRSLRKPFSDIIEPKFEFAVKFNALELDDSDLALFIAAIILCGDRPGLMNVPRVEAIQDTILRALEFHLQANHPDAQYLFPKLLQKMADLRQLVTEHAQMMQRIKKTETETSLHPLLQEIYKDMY
# UniProt O75469: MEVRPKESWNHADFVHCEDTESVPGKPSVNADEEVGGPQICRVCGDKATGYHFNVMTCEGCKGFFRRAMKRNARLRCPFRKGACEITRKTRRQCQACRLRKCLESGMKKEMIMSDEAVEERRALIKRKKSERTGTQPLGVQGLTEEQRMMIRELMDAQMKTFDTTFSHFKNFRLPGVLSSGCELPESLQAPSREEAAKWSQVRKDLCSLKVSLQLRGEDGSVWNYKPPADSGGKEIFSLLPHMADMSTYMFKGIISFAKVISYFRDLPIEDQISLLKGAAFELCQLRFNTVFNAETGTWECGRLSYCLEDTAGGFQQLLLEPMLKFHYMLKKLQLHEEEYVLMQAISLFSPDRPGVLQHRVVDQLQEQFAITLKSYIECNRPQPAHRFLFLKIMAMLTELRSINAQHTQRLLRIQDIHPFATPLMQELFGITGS
# UniProt P04637, whole entry, looked up: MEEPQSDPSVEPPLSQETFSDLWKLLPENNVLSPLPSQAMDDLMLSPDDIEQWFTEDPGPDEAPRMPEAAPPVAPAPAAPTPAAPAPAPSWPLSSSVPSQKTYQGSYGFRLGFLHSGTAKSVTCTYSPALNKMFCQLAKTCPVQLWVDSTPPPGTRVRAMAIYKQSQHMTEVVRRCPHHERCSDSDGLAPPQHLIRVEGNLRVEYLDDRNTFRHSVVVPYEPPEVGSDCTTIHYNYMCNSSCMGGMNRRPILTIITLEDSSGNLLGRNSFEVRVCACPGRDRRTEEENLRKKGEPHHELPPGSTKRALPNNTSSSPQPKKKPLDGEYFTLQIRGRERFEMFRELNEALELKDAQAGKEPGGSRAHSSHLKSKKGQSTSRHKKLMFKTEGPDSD
# UniProt Q96RI1: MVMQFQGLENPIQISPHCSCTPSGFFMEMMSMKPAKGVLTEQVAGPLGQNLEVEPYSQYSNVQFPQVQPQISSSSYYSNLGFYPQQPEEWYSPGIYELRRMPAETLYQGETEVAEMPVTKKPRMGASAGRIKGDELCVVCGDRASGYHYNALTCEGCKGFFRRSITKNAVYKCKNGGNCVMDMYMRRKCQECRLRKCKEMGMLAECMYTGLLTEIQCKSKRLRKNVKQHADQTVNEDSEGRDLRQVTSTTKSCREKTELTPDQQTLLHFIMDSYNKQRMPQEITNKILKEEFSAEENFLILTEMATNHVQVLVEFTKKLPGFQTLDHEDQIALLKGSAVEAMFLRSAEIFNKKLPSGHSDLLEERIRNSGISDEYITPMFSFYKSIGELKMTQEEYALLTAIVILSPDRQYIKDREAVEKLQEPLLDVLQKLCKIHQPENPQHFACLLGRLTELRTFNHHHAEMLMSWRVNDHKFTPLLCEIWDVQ
# UniProt P19793: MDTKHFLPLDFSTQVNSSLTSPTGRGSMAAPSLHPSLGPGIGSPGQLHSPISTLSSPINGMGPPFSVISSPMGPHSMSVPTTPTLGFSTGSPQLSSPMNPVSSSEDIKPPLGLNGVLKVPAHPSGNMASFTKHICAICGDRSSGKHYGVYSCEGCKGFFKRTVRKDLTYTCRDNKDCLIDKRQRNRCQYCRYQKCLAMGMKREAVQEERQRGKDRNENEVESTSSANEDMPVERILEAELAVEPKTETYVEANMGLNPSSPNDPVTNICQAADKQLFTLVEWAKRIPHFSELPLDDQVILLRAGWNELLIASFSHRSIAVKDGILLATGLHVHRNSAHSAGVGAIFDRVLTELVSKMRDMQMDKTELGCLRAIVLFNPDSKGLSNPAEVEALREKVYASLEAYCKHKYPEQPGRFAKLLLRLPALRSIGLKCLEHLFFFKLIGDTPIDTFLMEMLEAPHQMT
# UniProt P11473: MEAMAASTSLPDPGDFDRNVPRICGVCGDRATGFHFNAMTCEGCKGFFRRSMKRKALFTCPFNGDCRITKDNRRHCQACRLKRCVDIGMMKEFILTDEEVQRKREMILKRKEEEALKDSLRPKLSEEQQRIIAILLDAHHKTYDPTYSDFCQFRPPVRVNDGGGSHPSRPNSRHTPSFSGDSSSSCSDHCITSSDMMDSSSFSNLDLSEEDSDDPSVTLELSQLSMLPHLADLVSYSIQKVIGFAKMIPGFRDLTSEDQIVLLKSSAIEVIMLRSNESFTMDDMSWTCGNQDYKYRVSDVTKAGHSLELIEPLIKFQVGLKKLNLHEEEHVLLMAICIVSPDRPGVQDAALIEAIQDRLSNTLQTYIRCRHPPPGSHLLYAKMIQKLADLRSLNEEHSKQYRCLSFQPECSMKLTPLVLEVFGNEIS
# UniProt Q01717: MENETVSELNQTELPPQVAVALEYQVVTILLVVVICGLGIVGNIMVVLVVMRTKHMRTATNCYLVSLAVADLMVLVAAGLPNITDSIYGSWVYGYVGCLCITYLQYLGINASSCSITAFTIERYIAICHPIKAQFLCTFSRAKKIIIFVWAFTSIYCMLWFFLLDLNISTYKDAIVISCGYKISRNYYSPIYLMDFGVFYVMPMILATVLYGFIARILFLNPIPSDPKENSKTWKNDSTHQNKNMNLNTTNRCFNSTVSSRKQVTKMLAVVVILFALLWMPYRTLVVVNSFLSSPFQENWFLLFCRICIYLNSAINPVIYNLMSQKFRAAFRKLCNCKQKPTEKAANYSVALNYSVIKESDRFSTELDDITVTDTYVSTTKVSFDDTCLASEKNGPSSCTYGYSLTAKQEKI
# Inconclusive results, whose numbers are uncertain, are shown with a selection of clear calls. Where the call is inconclusive, the potency comes from a doubtful curve fit. The source made the active and inactive calls. The calls were made as follows: active = hit-call score of the fitted dose curve at least 0.9, where 1 is the maximum; inconclusive = response in the unintended direction; inactive = score below 0.9.
# Tests used:
# [1] = molecular target: Glucocorticoid receptor (Homo sapiens) (UniProt P04150); experiment: ATG_GR_TRANS: Attagene TRANS-FACTORIAL HepG2 Assay for human Glucocorticoid Receptor (GR) (AID 2282978); settings: HepG2 Attagene TRANS GR reporter, mRNA transcription;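 also: activators score as hits since higher reporter transcript over DMSO is fitted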
# In short: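 HepG2 cells transiently transfected with GAL4-UAS reporter units and exogenous GR-Gal4 chimera, dosed 24 h. Reporter mRNA by RT-PCR, FAM labeling, HpaI digest and capillary electrophoresis; gain-of-signal fit versus DMSO.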
# [2] = molecular target: human Peroxisome Proliferator-activated Receptor delta (PPARd), PPARD (gene 5467) (UniProt Q03181); experiment: ATG_PPARd_TRANS: Attagene TRANS-FACTORIAL HepG2 Assay for human Peroxisome Proliferator-activated Receptor delta (PPARd) (AID 2283002)
# In short: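 HepG2 cells transiently transfected with GAL4-UAS multiplexed reporter units driven by exogenous chimeric NR-GAL4 proteins; 24 h compound exposure. Reporter mRNA measured by RT-PCR, 6-FAM primer extension, HpaI digestion and capillary electrophoresis; gain of signal fitted relative to DMSO.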
# [3] = molecular target: Nuclear receptor subfamily 1 group I member 2 (Homo sapiens) (UniProt O75469); experiment: ATG_PXR_TRANS: Attagene TRANS-FACTORIAL HepG2 Assay for human Pregnane X Receptor (PXR) (AID 2283008)
# In short: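 HepG2 cells transiently transfected with multiple reporter units, here a PXR-GAL4 chimera driving a GAL4-UAS reporter; 24 h compound exposure. Reporter mRNA measured by RT-PCR, FAM labelling and capillary electrophoresis; gain of signal fitted against DMSO baseline.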
# [4] = ATG_XTT_Cytotoxicity: Cytotoxicity Assessment in the Attagene TRANS-FACTORIAL HepG2 Assay (AID 2283584);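 also: cells exposed to compound for 24 h before reading; active means loss of viability signal versus DMSO baseline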
# In short: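 XTT readout of cell number in transfected HepG2 cells, 24 h post-dosing; DMSO serves as negative control and baseline, with activity taken as loss of viability signal.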
# [5] = molecular target: Cellular tumor antigen p53 (Homo sapiens) (UniProt P04637); experiment: TOX21_p53_BLA_p2_ratio: Tox21 HCT-116 p53 Agonism Beta-lactamase Assay, Ratio, Phase 2 (AID 2283592)
# In short: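 In this cell-based reporter format, HCT116 cells were dosed with chemicals delivered from DMSO by 217-fold dilution and incubated 16 h at 37C. Emission at 460 and 530 nm after 2 h CCF4-AM loading provided the ratio, fitted upward versus DMSO.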
# [6] = molecular target: Cellular tumor antigen p53 (Homo sapiens) (UniProt P04637); experiment: TOX21_p53_BLA_p5_ratio: Tox21 HCT-116 p53 Agonism Beta-lactamase Assay, Ratio, Phase 5 (AID 2283599)
# In short: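 HCT-116 p53-bla cells (4000/well) plated 5 h, dosed with compound (217-fold DMSO dilution) for 16 h at 37 C; CCF4-AM substrate 2 h at room temperature. Activity is the 460/530 nm emission ratio (405 nm excitation), fitted in gain-of-signal direction versus DMSO.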
# [7] = molecular target: Bile acid receptor (Homo sapiens) (UniProt Q96RI1); experiment: ATG_FXR_TRANS: Attagene TRANS-FACTORIAL HepG2 Assay for Farnesoid X Receptor (FXR) (AID 2282979); settings: HepG2 Attagene TRANS FXR-GAL4 reporter transcription;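 also: hits raise reporter mRNA above DMSO so AC50 marks FXR activation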
# In short: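 Read-out: fluorescent reporter transcripts quantified by capillary electrophoresis after RT-PCR of total RNA. Source cells were HepG2 transiently carrying chimeric NR-GAL4 plus GAL4-UAS reporter units, dosed 24 h. Activity fitted upward relative to DMSO baseline.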
# [8] = ATG_M_32_TRANS: Attagene TRANS-FACTORIAL HepG2 Assay for M32 Transcription Factor (Internal Marker) (AID 2282984); settings: HepG2 Attagene TRANS M32 internal marker reporter;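 as to outcome: transcript level of a background control reporter unit measured by RT-PCR and capillary electrophoresis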
# In short: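 Capillary electrophoresis of 6-FAM-labelled reporter fragments gives the signal; data fitted for gain over DMSO negative control. Source: HepG2 cells bearing transient multiple reporter transcription units, 24 h exposure.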
# [9] = molecular target: Cellular tumor antigen p53 (Homo sapiens) (UniProt P04637); experiment: TOX21_p53_BLA_p4_ratio: Tox21 HCT-116 p53 Agonism Beta-lactamase Assay, Ratio, Phase 4 (AID 2283601)
# In short: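 HCT-116 p53 beta-lactamase reporter cells (4000/well) preincubated 5 h, then compound (217-fold dilution of DMSO stock) for 16 h at 37C. CCF4-AM substrate added 2 h at room temperature; 460/530 nm emission ratio fitted upward versus DMSO.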
# [10] = molecular target: Retinoic acid receptor RXR-alpha (Homo sapiens) (UniProt P19793); experiment: ATG_RXRa_TRANS: Attagene TRANS-FACTORIAL HepG2 Assay for human Retinoid X Receptor alpha (RXRa) (AID 2283012)
# In short: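 HepG2 cells transiently transfected with multiplexed GAL4-UAS reporter units and chimeric NR-GAL4 fusions, dosed 24 h. Reporter mRNA measured by RT-PCR, FAM labelling, HpaI digestion and capillary electrophoresis; gain-of-signal fitted relative to DMSO baseline.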
# [11] = molecular target: human Vitamin D Receptor (VDR), VDR (gene 7421) (UniProt P11473); experiment: ATG_VDR_TRANS: Attagene TRANS-FACTORIAL HepG2 Assay for human Vitamin D Receptor (VDR) (AID 2283022)
# In short: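 RT-PCR/capillary electrophoresis read-out of reporter mRNA induction in transiently transfected HepG2; 24 h dosing; chimeric NR-Gal4 (TRANS format); gain-of-signal fit against DMSO baseline.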
# [12] = CCTE_Harrill_HTTr_CellCount_MCF7: CCTE's Cell Proliferation Assessment for the High-Throughput Transcriptomics (HTTr) Platform, Harrill Lab (AID 2284012);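 also: cells exposed to compound for six hours; intended direction is loss of nuclei count meaning fewer cells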
# In short: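 MCF-7 cells were exposed for 6 h to an eight-point dilution series; Hoechst-labeled nuclei were counted by high content imaging. Curves were fitted bidirectionally against DMSO as negative control and baseline, with signal loss indicating reduced cell count.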
# [13] = ATG_M_06_TRANS: Attagene TRANS-FACTORIAL HepG2 Assay for M06 Transcription Factor (Internal Marker) (AID 2282983); settings: HepG2 Attagene TRANS M06 internal marker reporter;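 as to AC50: potency for rise in reporter mRNA above DMSO baseline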;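 as to outcome: reporter transcript level by RT-PCR then capillary electrophoresis fluorescence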
# In short: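 After a 24 h chemical treatment of transfected HepG2, RNA underwent DNase I treatment, reverse transcription and reporter-specific PCR; labelled, HpaI-digested products were sized by capillary electrophoresis. Signal increase relative to DMSO defined activity.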
# [14] = molecular target: rat Thyrotropin Releasing Hormone Receptor (TRH), Trhr (gene 25570) (UniProt Q01717); experiment: NVS_GPCR_rTRH: NovaScreen (NVS) G Protein-Coupled Receptor Assay for rat Thyrotropin Releasing Hormone Receptor (TRH) (AID 2283329);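 also: hit means lower bound tracer signal versus DMSO baseline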
# In short: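 Cell-free radioligand binding on rat forebrain membranes; bound tracer measured by filter-based scintillation counting 4 hours after dosing. Loss of signal versus DMSO baseline indicates displacement; primary screen at 25 uM in duplicate, actives then run in concentration series.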
# [15] = molecular target: Retinoic acid receptor RXR-alpha (Homo sapiens) (UniProt P19793); experiment: OT_NURR1_NURR1RXRa_0480: Odyssey Thera (OT) 8-hour HEK293T Protein Complementation Assay for Nurr1/retinoid X receptor (RXR) (AID 2283385)
# In short: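 HEK293T cells expressing Nurr1 and RXRα fused to reporter fragments were dosed with compound for 8 hours. Complex formation was read as fluorescence intensity and analysed as gain of signal against DMSO as baseline.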
# [16] = molecular target: Retinoic acid receptor RXR-alpha (Homo sapiens) (UniProt P19793); experiment: OT_NURR1_NURR1RXRa_1440: Odyssey Thera (OT) 24-hour HEK293T Protein Complementation Assay for Nurr1/retinoid X receptor (RXR) (AID 2283386)
# In short: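 HEK293T cells were dosed with compound and read 24 h later by fluorescence intensity in a protein-fragment complementation format, where Nurr1–RXRα interaction reconstitutes a split reporter. Activity was fitted as gain of signal relative to DMSO baseline.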
# [17] = molecular target: Cellular tumor antigen p53 (Homo sapiens) (UniProt P04637); experiment: TOX21_p53_BLA_p3_ratio: Tox21 HCT-116 p53 Agonism Beta-lactamase Assay, Ratio, Phase 3 (AID 2283596)
# In short: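 HCT116 p53-bla cells (4000/well) given compound in DMSO (217-fold dilution) after 5 h, incubated 16 h at 37C. CCF4-AM substrate 2 h at room temperature; 460/530 nm emission ratio, gain fitted against DMSO.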
# [18] = CCTE_Deisenroth_AIME_384WELL_CTox_Inactive: Cytotoxicity Assessment (CTOX) in CCTE's 384-well Estrogen Receptor Transactivation Assay without AIME metabolic competence (metabolism negative), Deisenroth Lab (AID 2284039);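 also: cell viability via live-cell protease substrate cleaved to fluorescent probe; cells exposed 24 h to medium preincubated 2 h with alginate-water beads without S9; loss of fluorescence signal means loss of viability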
# In short: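 VM7Luc4E2 human breast cells received conditioned medium from a 2 h incubation of chemical with alginate-water microspheres (no S9), then were exposed 24 h. Viability was read as protease-substrate cleavage to a fluorescent probe; loss of signal was fitted bidirectionally over 0.002–200 uM.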
smiles,measurement,setting,value
C=C(C)C(=O)OCCC[Si](OC)(OC)OC,AC50,[1],inconclusive: 100 µM
same,AC50,[2],inconclusive: 26.9 µM
same,outcome,[3],inactive
same,AC50,[4],inconclusive: 100 µM
same,AC50,[5],inconclusive: 45.7 µM
same,outcome,[6],inactive
N#Cc1ccc(CC(=O)c2cccc(C(F)(F)F)c2)cc1,outcome,[1],inactive
same,outcome,[2],inactive
same,AC50,[10],active: 26.4 µM
same,AC50,[5],inconclusive: 46.1 µM
CCCCSCCCC,AC50,[1],inconclusive: 0.0823 µM
same,outcome,[13],inactive
same,AC50,[9],inconclusive: 83.6 µM
O=P(O)(O)O,AC50,[7],inconclusive: 100 µM
same,AC50,[8],inconclusive: 173 µM
same,AC50,[10],inconclusive: 100 µM
same,AC50,[11],inconclusive: 24.5 µM
same,outcome,[12],inactive
CCNCCO,outcome,[1],inactive
same,AC50,[8],inconclusive: 100 µM
same,AC50,[2],inconclusive: 100 µM
same,AC50,[10],inconclusive: 179 µM
same,AC50,[15],inconclusive: 2.17 µM
same,AC50,[18],inconclusive: 0.0002 µM
CC1=C(O)C(=O)C(C)O1 (stereo not drawn),AC50,[1],inconclusive: 102 µM
same,outcome,[8],inactive
same,AC50,[3],inconclusive: 102 µM
same,AC50,[17],inconclusive: 82.6 µM
same,outcome,[6],inactive
CCCCCCC(C)(C)S,outcome,[1],inactive
same,AC50,[7],inconclusive: 0.00558 µM
same,outcome,[3],inactive
same,AC50,[10],inconclusive: 61 µM
same,AC50,[14],inconclusive: 25 µM
same,outcome,[16],inactive

# Already shown: entries from further up.
smiles,measurement,setting,value
CCCCSCCCC,AC50,[9],inconclusive: 83.6 µM
O=P(O)(O)O,AC50,[7],inconclusive: 100 µM
